# Values from PubChem BioAssay AID686938 (Drosophila RNAi Screening Center, 2013)
# Test: 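Knock-downs reducing store-operated calcium influx in Drosophila cells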 (primary screen)
# Cells: Drosophila S2R+ cells
# Reagent: long dsRNA against Drosophila genes, about 0.25 µg dsRNA per well, roughly 10,000 cells
# Timing: 5 days of knock-down before the calcium assay
# Conditions: thapsigargin (SERCA pump blocker) to empty calcium stores; entry signal taken 4 min after adding it
# Detection: 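Duplicate raw fluo-4 intensities per well from a plate reader, at rest and four minutes after thapsigargin emptied calcium stores; entry-to-rest ratio filled for only some wells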
# Scale: calcium entry signal: higher = stronger calcium signal after store depletion; entry to resting ratio: higher = more calcium entry relative to resting level; resting calcium signal: higher = higher resting calcium signal
# Active means: 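Called when the plate z-score of the entry-to-rest ratio, mean of duplicates, falls below −3; wells with low overall dye signal (Fmax z below −2) or more than five off-targets excluded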
# Calls: active = strongly reduced calcium entry; inactive = no strong reduction
# The deposit covers about 23,000 reagents; this is a random part of those with a known target gene and a result. In the full data, 75 (0.33%) were called active. 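Raw plate signals without normalisation; calls rest on plate z-scores that were not deposited; ratio present for only 364 wells.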 Entries without a mark were called inactive. Reagents against one gene are numbered here. A plus sign joins genes that one reagent is predicted to hit. The record does not give: the dose of the treatment.
predicted target,dsRNA no.,"calcium entry signal, replicate 1 (fluorescence units)","calcium entry signal, replicate 2 (fluorescence units)",entry to resting ratio,"resting calcium signal, replicate 1 (fluorescence units)","resting calcium signal, replicate 2 (fluorescence units)"
fkh,1,3.93e7,5.72e7,,1.96e7,2.48e7
Ccdc39,1,2.69e7,4.62e7,,1.28e7,2.16e7
CG12231,1,4.65e7,4.22e7,,2.36e7,1.93e7
CG31380,1,4.18e7,6.55e7,,1.88e7,2.66e7
Gr93c,1,4.03e7,3.56e7,,5.19e7,1.66e7
CG14270,1,3.69e7,5.31e7,2.2,1.70e7,2.22e7
Elba3,1,3.59e7,,,1.68e7,
viaf,1,5.52e7,4.46e7,,3.61e7,1.94e7
CG45002,1,3.55e7,3.39e7,,1.97e7,1.69e7
Cyp6a20,1,3.49e7,3.59e7,,1.71e7,1.70e7
CG31510,1,4.31e7,4.90e7,,2.11e7,2.02e7
Pih1D1,1,4.58e7,,,2.41e7,
Mlp84B,1,4.10e7,3.08e7,,2.12e7,1.42e7
Sec22 + CG13358,1,5.17e7,3.56e7,,2.29e7,1.93e7
Men-b,1,4.54e7,5.77e7,,2.32e7,2.56e7
CG42826,1,3.99e7,3.92e7,,1.91e7,1.62e7
AANATL5,1,4.26e7,5.48e7,,1.80e7,2.49e7
CR9337,1,3.13e7,,,1.59e7,
dmpd,1,4.61e7,3.99e7,,1.87e7,1.90e7
IntS10,1,2.92e7,4.19e7,,1.46e7,1.80e7
tty,1,4.58e7,5.03e7,,2.04e7,2.11e7
CG11141,1,4.41e7,,,2.18e7,
Rab18,1,2.98e7,3.41e7,,1.46e7,1.66e7
CG43367,1,3.63e7,4.17e7,,1.88e7,1.91e7
CG43367,2,3.69e7,3.95e7,,1.98e7,2.03e7
CG43367,3,2.95e7,3.76e7,,1.74e7,1.81e7
shop,1,3.51e7,4.08e7,,1.68e7,1.75e7
YME1L,1,3.66e7,,,1.90e7,
CG10550,1,3.02e7,3.09e7,,1.34e7,1.48e7
Or19a,1,4.76e7,5.16e7,,2.53e7,2.32e7
tRNA:Leu-CAA-2-3,1,2.79e7,4.59e7,,1.42e7,1.99e7
CG8343,1,4.26e7,,,2.11e7,
CG17108,1,3.31e7,3.56e7,,1.45e7,1.85e7
CG17108,2,4.52e7,6.53e7,,2.16e7,3.33e7
TotX,1,3.34e7,5.24e7,,1.71e7,2.69e7
inaE,1,1.97e7,2.71e7,,1.11e7,1.24e7
inaE,2,2.15e7,3.16e7,,1.05e7,1.48e7
inaE,3,1.60e7,4.04e7,,9.84e6,1.98e7
inaE,4,2.40e7,2.48e7,,1.33e7,1.12e7
Rab32,1,2.29e7,3.54e7,,1.23e7,1.62e7
Rab32,2,2.63e7,1.78e7,,1.10e7,8.86e6

Laid out differently: results already given.
CR9337
- calcium entry signal, replicate 1 (fluorescence units): 3.13e7
- resting calcium signal, replicate 1 (fluorescence units): 1.59e7

dmpd
- calcium entry signal, replicate 1 (fluorescence units): 4.61e7
- calcium entry signal, replicate 2 (fluorescence units): 3.99e7
- resting calcium signal, replicate 1 (fluorescence units): 1.87e7
- resting calcium signal, replicate 2 (fluorescence units): 1.90e7

IntS10
- calcium entry signal, replicate 1 (fluorescence units): 2.92e7
- calcium entry signal, replicate 2 (fluorescence units): 4.19e7
- resting calcium signal, replicate 1 (fluorescence units): 1.46e7
- resting calcium signal, replicate 2 (fluorescence units): 1.80e7

tty
- calcium entry signal, replicate 1 (fluorescence units): 4.58e7
- calcium entry signal, replicate 2 (fluorescence units): 5.03e7
- resting calcium signal, replicate 1 (fluorescence units): 2.04e7
- resting calcium signal, replicate 2 (fluorescence units): 2.11e7

CG11141
- calcium entry signal, replicate 1 (fluorescence units): 4.41e7
- resting calcium signal, replicate 1 (fluorescence units): 2.18e7
